Source: paper PMC12167491
These are yes or no findings as the source states them, for the method shown. In cells and extracts the contact can be indirect. Some results given as binding are weak or reduced against the parent protein; the word gives no strength. For some of these results: Sequences can lack the tags named with a protein.

The chains behind the UniProt entries cited, without tags or fusion partners.
UniProt Q96NA2: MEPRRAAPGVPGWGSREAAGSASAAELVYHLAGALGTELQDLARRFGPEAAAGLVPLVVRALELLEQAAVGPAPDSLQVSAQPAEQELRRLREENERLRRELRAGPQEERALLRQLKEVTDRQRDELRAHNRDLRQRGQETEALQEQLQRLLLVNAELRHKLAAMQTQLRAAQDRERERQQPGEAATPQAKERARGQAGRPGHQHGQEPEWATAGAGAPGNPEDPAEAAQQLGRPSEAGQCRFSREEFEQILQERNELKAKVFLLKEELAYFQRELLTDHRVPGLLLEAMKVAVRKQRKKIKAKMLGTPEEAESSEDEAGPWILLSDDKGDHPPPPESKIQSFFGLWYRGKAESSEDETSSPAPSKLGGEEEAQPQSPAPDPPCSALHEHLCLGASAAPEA
UniProt Q9NVJ2: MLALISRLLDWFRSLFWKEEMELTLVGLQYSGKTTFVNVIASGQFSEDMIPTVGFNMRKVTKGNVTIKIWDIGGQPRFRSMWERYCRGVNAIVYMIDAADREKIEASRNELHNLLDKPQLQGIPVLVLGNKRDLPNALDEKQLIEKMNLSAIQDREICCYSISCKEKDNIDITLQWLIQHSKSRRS
UniProt Q9H0B6: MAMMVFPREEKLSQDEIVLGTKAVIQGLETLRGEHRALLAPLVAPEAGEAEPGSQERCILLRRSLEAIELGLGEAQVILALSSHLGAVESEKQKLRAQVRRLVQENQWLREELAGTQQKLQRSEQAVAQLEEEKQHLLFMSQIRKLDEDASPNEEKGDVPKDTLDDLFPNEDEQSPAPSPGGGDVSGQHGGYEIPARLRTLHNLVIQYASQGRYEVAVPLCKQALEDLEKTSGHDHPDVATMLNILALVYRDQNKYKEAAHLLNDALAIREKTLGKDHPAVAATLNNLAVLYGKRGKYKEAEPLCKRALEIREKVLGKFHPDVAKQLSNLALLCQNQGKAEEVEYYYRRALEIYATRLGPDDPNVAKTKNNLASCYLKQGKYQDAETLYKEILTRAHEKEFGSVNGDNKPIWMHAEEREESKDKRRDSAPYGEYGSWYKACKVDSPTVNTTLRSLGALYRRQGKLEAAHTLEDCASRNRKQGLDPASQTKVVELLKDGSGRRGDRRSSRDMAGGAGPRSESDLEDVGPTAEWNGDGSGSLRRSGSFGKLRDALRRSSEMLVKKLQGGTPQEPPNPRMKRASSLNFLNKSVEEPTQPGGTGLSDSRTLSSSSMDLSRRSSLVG

T1: Annexin 1 (ANXA1) (human (endogenous in A549)) (UniProt P04083)
T1 sequence: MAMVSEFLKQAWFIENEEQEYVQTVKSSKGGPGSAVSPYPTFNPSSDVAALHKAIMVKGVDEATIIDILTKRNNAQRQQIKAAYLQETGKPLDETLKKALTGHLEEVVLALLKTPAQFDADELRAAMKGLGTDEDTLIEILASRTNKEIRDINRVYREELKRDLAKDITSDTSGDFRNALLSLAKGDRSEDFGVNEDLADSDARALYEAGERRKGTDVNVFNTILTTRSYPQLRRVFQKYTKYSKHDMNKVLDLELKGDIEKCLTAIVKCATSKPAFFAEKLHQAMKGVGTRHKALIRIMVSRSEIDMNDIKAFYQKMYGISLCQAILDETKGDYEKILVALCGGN

T2: VPS22-MYC (UniProt Q96H20)
T2 sequence: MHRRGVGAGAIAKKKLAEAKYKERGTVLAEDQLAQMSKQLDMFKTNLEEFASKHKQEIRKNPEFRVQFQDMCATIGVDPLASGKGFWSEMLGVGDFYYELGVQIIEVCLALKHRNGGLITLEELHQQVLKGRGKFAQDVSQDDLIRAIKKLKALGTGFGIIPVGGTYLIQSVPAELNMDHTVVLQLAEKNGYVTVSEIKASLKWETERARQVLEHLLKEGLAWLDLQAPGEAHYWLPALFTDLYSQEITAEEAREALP


Assays:
[1] = biological target: Rab interacting lysosomal protein (RILP) (UniProt Q96NA2); assay: co-IP; RILP with ARL8B and KLC2, with or without oxidative stress (Figure S6); cells and constructs not shown; lysis buffer 50 mM Tris-HCl pH 7.5, 150 mM NaCl, 0.5% Triton X-100, 1 mM EDTA
[2] = biological target: T1, Annexin 1 (ANXA1) (human (endogenous in A549)); assay: co-IP; endogenous proteins in A549 cells, with or without tBHP (250 uM, 6 h); lysis buffer 50 mM Tris-HCl pH 7.5, 150 mM NaCl, 0.5% Triton X-100, 1 mM EDTA; protein A/G agarose, 4 C
VPS22-MYC = biological target: T2, VPS22-MYC; assay: co-IP; A549 cells transfected with VPS22-MYC, with or without ATE1 siRNA and tBHP (250 uM, 6 h); lysis buffer 50 mM Tris-HCl pH 7.5, 150 mM NaCl, 0.5% Triton X-100, 1 mM EDTA; protein A/G agarose, 4 C

Molecule | binding [1] | also measured
VPS22 (SNF8), endogenous (protein, UniProt Q96H20 1-258) MHRRGVGAGAIAKKKLAEAKYKERGTVLAEDQLAQMSKQLDMFKTNLEEFASKHKQEIRKNPEFRVQFQDMCATIGVDPLASGKGFWSEMLGVGDFYYELGVQIIEVCLALKHRNGGLITLEELHQQVLKGRGKFAQDVSQDDLIRAIKKLKALGTGFGIIPVGGTYLIQSVPAELNMDHTVVLQLAEKNGYVTVSEIKASLKWETERARQVLEHLLKEGLAWLDLQAPGEAHYWLPALFTDLYSQEITAEEAREALP |  | binding [2]: binds
VPS36 (protein, UniProt Q86VN1 1-386) MDRFVWTSGLLEINETLVIQQRGVRIYDGEEKIKFDAGTLLLSTHRLIWRDQKNHECCMAILLSQIVFIEEQAAGIGKSAKIVVHLHPAPPNKEPGPFQSSKNSYIKLSFKEHGQIEFYRRLSEEMTQRRWENMPVSQSLQTNRGPQPGRIRAVGIVGIERKLEEKRKETDKNISEAFEDLSKLMIKAKEMVELSKSIANKIKDKQGDITEDETIRFKSYLLSMGIANPVTRETYGSGTQYHMQLAKQLAGILQVPLEERGGIMSLTEVYCLVNRARGMELLSPEDLVNACKMLEALKLPLRLRVFDSGVMVIELQSHKEEEMVASALETVSEKGSLTSEEFAKLVGMSVLLAKERLLLAEKMGHLCRDDSVEGLRFYPNLFMTQS |  | binding (VPS22-MYC): binds

Further lines, with some results ahead:

binding [1] | Molecule | also measured
binds | ARL8B (from UniProt Q9NVJ2 1-186) | 
binds | Kinesin (KLC2) (from UniProt Q9H0B6 1-622) | 
